# From PMC7948453
# Protein sequences, listed by entry. Tags and fused reporters are not part of them.
# UniProt Q9QZH3: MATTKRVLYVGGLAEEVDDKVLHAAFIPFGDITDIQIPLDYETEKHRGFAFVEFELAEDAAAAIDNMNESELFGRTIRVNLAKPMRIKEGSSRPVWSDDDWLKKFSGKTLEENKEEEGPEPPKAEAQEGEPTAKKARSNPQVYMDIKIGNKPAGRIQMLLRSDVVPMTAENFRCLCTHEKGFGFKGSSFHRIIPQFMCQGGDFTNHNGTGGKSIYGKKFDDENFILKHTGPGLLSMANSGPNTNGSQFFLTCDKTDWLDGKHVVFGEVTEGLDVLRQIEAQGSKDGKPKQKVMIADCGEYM
# UniProt P40201: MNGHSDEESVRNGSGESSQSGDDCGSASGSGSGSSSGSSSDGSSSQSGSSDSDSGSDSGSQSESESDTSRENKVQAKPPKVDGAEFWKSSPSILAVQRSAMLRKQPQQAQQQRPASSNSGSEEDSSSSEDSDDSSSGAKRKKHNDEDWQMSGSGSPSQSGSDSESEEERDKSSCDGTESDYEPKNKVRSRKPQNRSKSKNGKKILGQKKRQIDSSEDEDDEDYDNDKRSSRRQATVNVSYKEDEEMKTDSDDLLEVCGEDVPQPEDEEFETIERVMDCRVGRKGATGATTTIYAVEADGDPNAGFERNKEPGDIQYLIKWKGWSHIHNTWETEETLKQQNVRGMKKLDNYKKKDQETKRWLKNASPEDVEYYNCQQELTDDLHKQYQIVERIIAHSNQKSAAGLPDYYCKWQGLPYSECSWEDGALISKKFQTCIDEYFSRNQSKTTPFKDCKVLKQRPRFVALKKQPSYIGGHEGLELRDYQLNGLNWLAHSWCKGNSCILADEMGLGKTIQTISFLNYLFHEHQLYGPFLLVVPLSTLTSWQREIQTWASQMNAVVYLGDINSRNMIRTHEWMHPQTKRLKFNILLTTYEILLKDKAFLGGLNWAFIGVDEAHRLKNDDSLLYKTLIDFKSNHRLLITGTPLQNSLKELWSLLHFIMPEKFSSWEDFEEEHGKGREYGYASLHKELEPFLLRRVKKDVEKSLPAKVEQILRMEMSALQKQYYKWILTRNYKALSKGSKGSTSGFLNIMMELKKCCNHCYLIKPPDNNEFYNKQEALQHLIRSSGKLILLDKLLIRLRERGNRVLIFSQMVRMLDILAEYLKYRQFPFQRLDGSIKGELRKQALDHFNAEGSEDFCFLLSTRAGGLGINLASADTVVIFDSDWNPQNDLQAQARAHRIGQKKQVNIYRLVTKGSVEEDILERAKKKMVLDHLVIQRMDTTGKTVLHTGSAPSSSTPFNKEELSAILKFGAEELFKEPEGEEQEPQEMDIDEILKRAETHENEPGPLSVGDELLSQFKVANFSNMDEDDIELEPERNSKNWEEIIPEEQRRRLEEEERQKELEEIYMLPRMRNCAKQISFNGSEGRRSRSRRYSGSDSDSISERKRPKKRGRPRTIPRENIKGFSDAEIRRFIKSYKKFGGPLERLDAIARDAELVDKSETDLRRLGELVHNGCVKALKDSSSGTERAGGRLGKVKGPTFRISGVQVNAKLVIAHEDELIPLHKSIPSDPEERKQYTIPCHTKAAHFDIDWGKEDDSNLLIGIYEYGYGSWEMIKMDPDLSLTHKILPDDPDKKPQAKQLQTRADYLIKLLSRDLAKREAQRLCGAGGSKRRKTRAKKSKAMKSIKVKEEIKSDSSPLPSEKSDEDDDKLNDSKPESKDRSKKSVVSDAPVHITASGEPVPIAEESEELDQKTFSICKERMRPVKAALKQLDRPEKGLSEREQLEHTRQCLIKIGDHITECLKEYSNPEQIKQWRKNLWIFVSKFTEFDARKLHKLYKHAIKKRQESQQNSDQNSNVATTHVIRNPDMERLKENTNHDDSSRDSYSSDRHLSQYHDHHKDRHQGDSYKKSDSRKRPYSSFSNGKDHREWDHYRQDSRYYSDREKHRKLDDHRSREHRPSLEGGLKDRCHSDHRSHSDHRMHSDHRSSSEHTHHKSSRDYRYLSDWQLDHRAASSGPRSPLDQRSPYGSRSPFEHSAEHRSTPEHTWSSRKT
# UniProt P62869: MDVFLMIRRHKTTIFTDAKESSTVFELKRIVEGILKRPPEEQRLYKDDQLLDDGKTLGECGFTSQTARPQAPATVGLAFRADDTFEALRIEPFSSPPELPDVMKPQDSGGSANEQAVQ
# These are yes or no findings as the source states them, for the method shown. In cells and extracts the contact can be indirect. These calls come from enrichment with a bait or labelling near it, and not all partners need be listed.
# T1: Elongin A (mouse (endogenous in mESC)) (UniProt Q8CB77)
# T1 sequence: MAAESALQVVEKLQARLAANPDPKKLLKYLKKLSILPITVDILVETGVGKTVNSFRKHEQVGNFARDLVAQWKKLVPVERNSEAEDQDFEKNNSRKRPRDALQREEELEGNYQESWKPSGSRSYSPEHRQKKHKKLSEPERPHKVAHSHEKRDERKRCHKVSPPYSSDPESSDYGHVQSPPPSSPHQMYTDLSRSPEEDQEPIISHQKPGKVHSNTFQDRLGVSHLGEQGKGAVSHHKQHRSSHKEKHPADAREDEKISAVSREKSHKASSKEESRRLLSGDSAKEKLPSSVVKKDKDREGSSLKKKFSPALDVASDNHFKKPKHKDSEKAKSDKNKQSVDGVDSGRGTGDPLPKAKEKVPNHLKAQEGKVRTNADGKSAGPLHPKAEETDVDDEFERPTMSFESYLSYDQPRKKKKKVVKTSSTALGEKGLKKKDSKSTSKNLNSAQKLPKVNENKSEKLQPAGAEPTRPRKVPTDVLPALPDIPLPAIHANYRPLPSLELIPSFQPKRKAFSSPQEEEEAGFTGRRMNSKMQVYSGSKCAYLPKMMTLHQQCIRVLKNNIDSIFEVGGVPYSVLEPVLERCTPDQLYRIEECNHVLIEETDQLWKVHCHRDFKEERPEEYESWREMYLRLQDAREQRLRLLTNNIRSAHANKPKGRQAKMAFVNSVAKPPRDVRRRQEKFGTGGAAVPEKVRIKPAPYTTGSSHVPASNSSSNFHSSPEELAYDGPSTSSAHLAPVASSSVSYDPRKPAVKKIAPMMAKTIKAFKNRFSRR
# Target: T1, Elongin A (mouse (endogenous in mESC))
# Test: affinity purification with mass spectrometry; IP of endogenous EloA with goat anti-EloA (SCBT, R-19) on magnetic protein G from MEF-depleted mESC nuclear extract (no solubilized chromatin fraction), 300 mM KCl, 0.05% NP-40, 3 h at 4 °C; control IP from EloA null mESC
row,Molecule,binding
1,PPIE (from UniProt Q9QZH3 1-301),binds
2,chromatin remodeling factor CHD1 (from UniProt P40201 1-1711),binds
3,Elongin B (from UniProt P62869 1-118),binds
4,"Ddx51 (protein, UniProt Q6P9R1 1-639) MALFHIARYAGPEAAGQGDTDAEAGSRARVLLERLQNRARERQQREPELETTGTAGEGEAAAAGKRRRRPRRRRRVSGSATPNSEAPRAKRRKADKDVDAGRGEEAPEELSAGAEDPGANPQEDVQRPPAPGRVLGDFARRKTPKVQPFLPAWLAKPSCVKKSVTEDLTPIEDIPEVHPDLQKQLRANGITSYFPVQAAVIPALLESADHGFLIGRGGYQPSDLCVSAPTGSGKTLAFVIPVVQALLHRVVCHIRALVVLPTKELAQQVSKVFNIYTDTTPLRVALVTGQKSLAKEQESLVQKTADGFRCLADIVVATPGRLVDHIDQTPGFSLQQLRFLIIDEADRMIDSMHQSWLPRVVAAAFYSEGPTGSCALLQRTQPQALTAASTCVPQMPLQKLLFSATLTQDPEKLQRLGLYQPRLFSTRLGQQSPKDTAEVDENSGKYTFPVGLTHHYVPCRLSSKPLIVLHLVLRMSCSRALCFTNSRENSHRLYLLAQAFGGVSVAEFSSRYGPGQRKKILKQFEQGKIQLLISTDATARGIDVQGVELVINYDAPQYLRTYVHRVGRTARAGKTGQAFTLLLKVQERKFLQMVSEAGVPELTHHEIPRKLLQPLVARYETALSQLEKTVKEEQKLKAA",binds
5,"Xeroderma pigmentosum group A (XPA)-binding protein 2 (protein, UniProt Q9DCD2 1-855) MVVMARVPRSERPDLVFEEEDLPYEEEIMRNQFSVKCWLRYIEFKQGAPKPRLNQLYERALKLLPCSYKLWYRYLKARRAQVKHRCVTDPAYEDVNNCHERAFVFMHKMPRLWLDYCQFLMDQGRVTHTRRTFDRALRALPITQHSRIWPLYLRFLRSHPLPETAVRGYRRFLKLSPESAEEYIEYLKSSDRLDEAAQRLATVVNDERFVSKAGKSNYQLWHELCDLISQNPDKVQSLNVDAIIRGGLTRFTDQLGKLWCSLADYYIRSGHFEKARDVYEEAIRTVMTVRDFTQVFDSYAQFEESMIAAKMETASELGREEEDDVDLELRLARFEQLISRRPLLLNSVLLRQNPHHVHEWHKRVALHQGRPREIINTYTEAVQTVDPFKATGKPHTLWVAFAKFYEDNGQLDDARVILEKATKVNFKQVDDLASVWCQCGELELRHENYDEALKLLRKATALPARRAEYFDGSEPVQNRVYKSLKVWSMLADLEESLGTFQSTKAVYDRILDLRIATPQIVINYAMFLEEHKYFEESFKAYERGISLFKWPNVSDIWSTYLTKFISRYGGRKLERARDLFEQALDGCPPKYAKTLYLLYAQLEEEWGLARHAMAVYDRATRAVEPAQQYDMFNIYIKRAAEIYGVTHTRGIYQKAIEVLSDEHAREMCLRFADMECKLGEIDRARAIYSFCSQICDPRTTGAFWQTWKDFEVRHGNEDTIREMLRIRRSVQATYNTQVNFMASQMLKVSGSATGTVSDLAPGQSGMDDMKLLEQRAEQLAAEAERDQPPRAQSKIFFVRSDASREELAELAQQANPEEIQLGEDEDEDEMDLEPNEVRLEQQSVPAAVFGSLKED",binds
6,"ISY1 (protein, UniProt Q69ZQ2 1-285) MARNAEKAMTALARFRQAQLEEGKVKERRPFLASECTELPKAEKWRRQIIGEISKKVAQIQNAGLGEFRIRDLNDEINKLLREKGHWEVRIKELGGPDYGKVGPKMLDHEGKEVPGNRGYKYFGAAKDLPGVRELFEKEPLPPPRKTRAELMKAIDFEYYGYLDEDDGVIVPLEQEYEKKLRAELVEKWKAEREARLARGEKEEEEEEEEEINIYAVTEEESDEEGNQEKAGEDGQQKFIAHVPVPSQQEIEEALVRRKKMELLQKYASETLQAQSEEAKRLLGY",binds
7,"putative RNA exonuclease Rexo1 (protein, UniProt Q7TT28 1-1213) MLRSTGFFRSIDCPYWAGAPGGPCRRPYCHFRHRGARGPGAPGSGGAASPASGLGYDPYNPELPQPPVQRENGALGQGDGMLELELVNQAIEAVRGEVELEQRRYQELLETARGHSAGPSALAPCSPATSIDDDDTFSLALTYTPGGLLSPDAAYQPTPLAVPAEPGHKYSLAPSDRSQGRAAGGAGALEYVPKAVGQPRRCGRPVSGGKYVVDSSKPSTDLEYDPLSNYSARHLGRASARDERATKRPRGSRGAEPYTPALKKPCDPFGGCEARFSDSEDDVTSPPKADVSSPKAGADPESKAPGKPVSKEGREHEDGGLRGTKEMAVQYDVEDLGQPPKAPDTVSVVKPGSPARASQDARVPKEGKAKKKKSGTSASLSHKDKVRKKDKKKEKDPARPRGKEKVCTDKKKLPASNPRGKAQGPEGTKKKPSSATTVASSGKGGSGRPSSTGPQDSGPGPHAPLAWKAGSAKKMSSGKLVERKARSLDEGAPQDTPKLKKRALSHAELFGDESEEEDSSLGAGAPRVWPPTLPSLSSDSESDSDSSLGLDETKVPKRLKAAPPASPVPPSPLSSSSSSSGASQCAEEDVDYSALEKEVDFDVDPMEECLRIFNESTSVKTEDKGRLARQPPKEKAEEKTHAGLTTLFPGQKRRVSHLCKPGKESEAPKRTPVAPPARPPTAQEVCYRRAQLAQRDSASWLQAAPRPTERLSSVHISAPGEKRRIAHVPNPRLAAAPTGAKRALSASSSQASHGPEPGSQPLKTRTLSGMASKTTTTVTPKRIAHSPSLQSLKKPVIPKEFGGKVPTVVRQRYLNLFIEECLKFCSSNQEAIEKALNEEKVAYDRSPSKNIYLNVAVNTLKKLRGLVPNTVPNLSKASGRRVVSHEVVLGGKLAAKTSFSLSRPSSPRVEELKGTALYSRLREYLLTQEQLKENGYPFPHPERPGGAIIFTAEEKKPKDPSCRICCRCGTEYLVSSSGRCVRSEECYYHWGRLRRNRVAGGWETQYMCCSAAVGSVGCQVAKQHVQDGRKENLEGFVRTFQKELPEDAHAGVFALDCEMSYTTYGLELTRVTVVDTDMQVVYDTFVKPDNEVVDYNTRFSGVTEADLVDTSITLRDVQAVLLSMFSADTILIGHSLESDLLALKVIHGTVVDTSVLFPHRLGLPYKRSLRNLMADYLRQIIQDNVDGHSSSEDASACMHLVIWKIREDAKTKR",binds
